According to the supplement of paper PMC8728848:
The list shows a part of the results.

How the values were obtained:
Assay in all cases: glycan array binding signal (z-score within array); higher = stronger binding
Settings in all cases: glycan notation: IUPAC condensed, linker removed
[1] = biological target: Gal(b1-4)GlcNAc(b1-3)Gal(b1-4)GlcNAc(b1-2)[Gal(b1-4)GlcNAc(b1-3)Gal(b1-4)GlcNAc(b1-6)]Man(a1-6)[Gal(b1-4)GlcNAc(b1-3)Gal(b1-4)GlcNAc(b1-2)Man(a1-3)]Man(b1-4)GlcNAc(b1-4)GlcNAc
Outline: (§1)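 Glycan array data were curated from 3228 arrays in the Consortium for Functional Glycomics database and kept only where the protein sequence was available. Glycan names were converted to IUPAC-condensed notation, and columns mapping to the same glycan were averaged. The binding signal is a within-array Z-score, averaged across arrays of the same protein sequence at different concentrations or buffers and across linkers. Negative Z-scores can be read as non-binding.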

[2] = biological target: Gal(b1-4)GlcNAc(b1-3)Gal(b1-4)GlcNAc(b1-2)[Gal(b1-4)GlcNAc(b1-3)Gal(b1-4)GlcNAc(b1-6)]Man(a1-6)[Gal(b1-4)GlcNAc(b1-3)Gal(b1-4)GlcNAc(b1-2)Man(a1-3)]Man(b1-4)GlcNAc(b1-4)[Fuc(a1-6)]GlcNAc
Outline: as §1

[3] = biological target: Gal(b1-4)GlcNAc(b1-3)Gal(b1-4)GlcNAc(b1-3)Gal(b1-4)GlcNAc
Outline: as §1

[4] = biological target: Gal(b1-4)GlcNAc(b1-3)Gal(b1-4)GlcNAc(b1-3)Gal(b1-4)GlcNAc(b1-2)Man(a1-3)[Gal(b1-4)GlcNAc(b1-3)Gal(b1-4)GlcNAc(b1-3)Gal(b1-4)GlcNAc(b1-2)Man(a1-6)]Man(b1-4)GlcNAc(b1-4)GlcNAc
Outline: as §1

[5] = biological target: Gal(b1-4)GlcNAc(b1-3)Gal(b1-4)GlcNAc(b1-3)Gal(b1-4)GlcNAc(b1-2)Man(a1-3)[Gal(b1-4)GlcNAc(b1-3)Gal(b1-4)GlcNAc(b1-3)Gal(b1-4)GlcNAc(b1-2)Man(a1-6)]Man(b1-4)GlcNAc(b1-4)[Fuc(a1-6)]GlcNAc
Outline: as §1

[6] = biological target: Gal(b1-4)GlcNAc(b1-3)Gal(b1-4)GlcNAc(b1-3)Gal(b1-4)GlcNAc(b1-2)[Gal(b1-4)GlcNAc(b1-3)Gal(b1-4)GlcNAc(b1-3)Gal(b1-4)GlcNAc(b1-6)]Man(a1-6)[Gal(b1-4)GlcNAc(b1-3)Gal(b1-4)GlcNAc(b1-3)Gal(b1-4)GlcNAc(b1-2)Man(a1-3)]Man(b1-4)GlcNAc(b1-4)[Fuc(a1-6)]GlcNAc
Outline: as §1

[7] = biological target: Gal(b1-4)GlcNAc(b1-3)Gal(b1-4)GlcNAc(b1-3)Gal(b1-4)GlcNAc(b1-3)Gal(b1-4)GlcNAc(b1-2)Man(a1-3)[Gal(b1-4)GlcNAc(b1-3)Gal(b1-4)GlcNAc(b1-3)Gal(b1-4)GlcNAc(b1-3)Gal(b1-4)GlcNAc(b1-2)Man(a1-6)]Man(b1-4)GlcNAc(b1-4)GlcNAc
Outline: as §1

[8] = biological target: Gal(b1-4)GlcNAc(b1-3)Gal(b1-4)GlcNAc(b1-3)Gal(b1-4)GlcNAc(b1-3)Gal(b1-4)GlcNAc(b1-2)Man(a1-3)[Gal(b1-4)GlcNAc(b1-3)Gal(b1-4)GlcNAc(b1-3)Gal(b1-4)GlcNAc(b1-3)Gal(b1-4)GlcNAc(b1-2)Man(a1-6)]Man(b1-4)GlcNAc(b1-4)[Fuc(a1-6)]GlcNAc
Outline: as §1

[9] = biological target: Gal(b1-4)GlcNAc(b1-3)Gal(b1-4)GlcNAc(b1-3)Gal(b1-4)GlcNAc(b1-3)Gal(b1-4)GlcNAc(b1-2)[Gal(b1-4)GlcNAc(b1-3)Gal(b1-4)GlcNAc(b1-3)Gal(b1-4)GlcNAc(b1-3)Gal(b1-4)GlcNAc(b1-6)]Man(a1-6)[Gal(b1-4)GlcNAc(b1-3)Gal(b1-4)GlcNAc(b1-3)Gal(b1-4)GlcNAc(b1-3)Gal(b1-4)GlcNAc(b1-2)Man(a1-3)]Man(b1-4)GlcNAc(b1-4)[Fuc(a1-6)]GlcNAc
Outline: as §1

[10] = biological target: Gal(b1-4)GlcNAc(b1-3)Gal(b1-4)GlcNAc(b1-3)Gal(b1-4)GlcNAc(b1-3)Gal(b1-4)GlcNAc(b1-3)Gal(b1-4)GlcNAc(b1-2)Man(a1-3)[Gal(b1-4)GlcNAc(b1-3)Gal(b1-4)GlcNAc(b1-3)Gal(b1-4)GlcNAc(b1-3)Gal(b1-4)GlcNAc(b1-3)Gal(b1-4)GlcNAc(b1-2)Man(a1-6)]Man(b1-4)GlcNAc(b1-4)GlcNAc
Outline: as §1

[11] = biological target: Gal(b1-4)GlcNAc(b1-3)Gal(b1-4)GlcNAc(b1-3)Gal(b1-4)GlcNAc(b1-3)Gal(b1-4)GlcNAc(b1-3)Gal(b1-4)GlcNAc(b1-2)Man(a1-3)[Gal(b1-4)GlcNAc(b1-3)Gal(b1-4)GlcNAc(b1-3)Gal(b1-4)GlcNAc(b1-3)Gal(b1-4)GlcNAc(b1-3)Gal(b1-4)GlcNAc(b1-2)Man(a1-6)]Man(b1-4)GlcNAc(b1-4)[Fuc(a1-6)]GlcNAc
Outline: as §1

[12] = biological target: Gal(b1-4)GlcNAc(b1-3)Gal(b1-4)GlcNAc(b1-3)Gal(b1-4)GlcNAc(b1-3)Gal(b1-4)GlcNAc(b1-3)Gal(b1-4)GlcNAc(b1-2)[Gal(b1-4)GlcNAc(b1-3)Gal(b1-4)GlcNAc(b1-3)Gal(b1-4)GlcNAc(b1-3)Gal(b1-4)GlcNAc(b1-3)Gal(b1-4)GlcNAc(b1-6)]Man(a1-6)[Gal(b1-4)GlcNAc(b1-3)Gal(b1-4)GlcNAc(b1-3)Gal(b1-4)GlcNAc(b1-3)Gal(b1-4)GlcNAc(b1-3)Gal(b1-4)GlcNAc(b1-2)Man(a1-3)]Man(b1-4)GlcNAc(b1-4)[Fuc(a1-6)]GlcNAc
Outline: as §1

[13] = biological target: Gal(b1-4)GlcNAc(b1-3)Gal(b1-4)GlcNAc(b1-3)Gal(b1-4)GlcNAc(b1-3)Gal(b1-4)GlcNAc(b1-3)Gal(b1-4)GlcNAc(b1-3)Gal(b1-4)GlcNAc(b1-2)Man(a1-3)[Gal(b1-4)GlcNAc(b1-3)Gal(b1-4)GlcNAc(b1-3)Gal(b1-4)GlcNAc(b1-3)Gal(b1-4)GlcNAc(b1-3)Gal(b1-4)GlcNAc(b1-3)Gal(b1-4)GlcNAc(b1-2)Man(a1-6)]Man(b1-4)GlcNAc(b1-4)GlcNAc
Outline: as §1

[14] = biological target: Gal(b1-4)GlcNAc(b1-3)Gal(b1-4)GlcNAc(b1-3)GalNAc
Outline: as §1

[15] = biological target: Gal(b1-4)GlcNAc(b1-3)Gal(b1-4)GlcNAc(b1-3)[Gal(b1-4)GlcNAc(b1-3)Gal(b1-4)GlcNAc(b1-6)]GalNAc
Outline: as §1

[16] = biological target: Gal(b1-4)GlcNAc(b1-3)Gal(b1-4)GlcNAc(b1-6)[Gal(b1-3)]GalNAc
Outline: as §1

[17] = biological target: Gal(b1-4)GlcNAc(b1-3)Gal(b1-4)[Fuc(a1-3)]GlcNAc(b1-3)Gal(b1-4)[Fuc(a1-3)]GlcNAc
Outline: as §1

[18] = biological target: Gal(b1-4)GlcNAc(b1-3)GalNAc
Outline: as §1

[19] = biological target: Gal(b1-4)GlcNAc(b1-3)[Fuc(a1-3)GlcNAc(b1-6)]Gal(b1-4)Glc
Outline: as §1

[20] = biological target: Gal(b1-4)GlcNAc(b1-3)[Gal(b1-4)GlcNAc(b1-6)]Gal(b1-4)GlcNAc
Outline: as §1

[21] = biological target: Gal(b1-4)GlcNAc(b1-3)[GlcNAc(b1-6)]Gal(b1-4)GlcNAc
Outline: as §1

[22] = biological target: Gal(b1-4)GlcNAc(b1-6)Gal(b1-4)GlcNAc
Outline: as §1

[23] = biological target: Gal(b1-4)GlcNAc(b1-6)GalNAc
Outline: as §1

[24] = biological target: Gal(b1-4)GlcNAc(b1-6)[Gal(b1-3)]GalNAc
Outline: as §1

[25] = biological target: Gal(b1-4)GlcNAc(b1-6)[Gal(b1-4)GlcNAc(b1-3)]GalNAc
Outline: as §1

Gal(b1-4)GlcNAc6P = biological target: Gal(b1-4)GlcNAc6P
Outline: as §1

Gal(b1-6)Gal = biological target: Gal(b1-6)Gal
Outline: as §1

Gal3S(b1-3)GalNAc = biological target: Gal3S(b1-3)GalNAc
Outline: as §1

Gal3S(b1-3)GlcNAc = biological target: Gal3S(b1-3)GlcNAc
Outline: as §1

[26] = biological target: Gal3S(b1-3)[Fuc(a1-4)]GlcNAc
Outline: as §1

Gal3S(b1-4)Glc = biological target: Gal3S(b1-4)Glc
Outline: as §1

Gal3S(b1-4)Glc6S = biological target: Gal3S(b1-4)Glc6S
Outline: as §1

Gal3S(b1-4)GlcNAc = biological target: Gal3S(b1-4)GlcNAc
Outline: as §1

[27] = biological target: Gal3S(b1-4)[Fuc(a1-3)]Glc6S
Outline: as §1

[28] = biological target: Gal3S(b1-4)[Fuc(a1-3)]GlcNAc
Outline: as §1

[29] = biological target: Gal3S(b1-4)[Fuc(a1-3)]GlcNAc6S
Outline: as §1

Gal3S4S(b1-4)GlcNAc = biological target: Gal3S4S(b1-4)GlcNAc
Outline: as §1

Gal3S6S(b1-4)GlcNAc = biological target: Gal3S6S(b1-4)GlcNAc
Outline: as §1

Gal3S6S(b1-4)GlcNAc6S = biological target: Gal3S6S(b1-4)GlcNAc6S
Outline: as §1

Gal4S(b1-4)GlcNAc = biological target: Gal4S(b1-4)GlcNAc
Outline: as §1

Gal4S6S(b1-4)GlcNAc = biological target: Gal4S6S(b1-4)GlcNAc
Outline: as §1

Gal6P(b1-4)GlcNAc = biological target: Gal6P(b1-4)GlcNAc
Outline: as §1

Gal6S(b1-3)GlcNAc = biological target: Gal6S(b1-3)GlcNAc
Outline: as §1

Gal6S(b1-3)GlcNAc6S = biological target: Gal6S(b1-3)GlcNAc6S
Outline: as §1

Gal6S(b1-4)Glc = biological target: Gal6S(b1-4)Glc
Outline: as §1

B1: Pwp1 (Candida glabrata) (protein)
chain: MGSSHHHHHHSSGLVPRGSHMASANPISITNVCQFPDNWARTAGFQATTVRLGLTIASNTYKELLNYPGLFNFATQKATVTQPNFSISGFPFFTGLYGLTVWPINLLVELQGYFVPPESGNYTFTLQGSDDAAILFFANPSTFACGSQNDWPQPREADITVTDTLVPSRTLYLVKGVAYPIRIAYYNGSGDGKLNVSFKDPSGTTHTDWKGYVWQYSNTCSTCTYT
glycan array binding signal (z-score) [1]: -1.74
glycan array binding signal (z-score) [2]: 1.04
glycan array binding signal (z-score) [3]: 0.236
glycan array binding signal (z-score) [4]: -0.538
glycan array binding signal (z-score) [5]: -0.444
glycan array binding signal (z-score) [6]: -0.784
glycan array binding signal (z-score) [7]: -3.09
glycan array binding signal (z-score) [8]: -1.93
glycan array binding signal (z-score) [9]: -1.08
glycan array binding signal (z-score) [10]: -2.29
glycan array binding signal (z-score) [11]: -0.637
glycan array binding signal (z-score) [12]: -3.11
glycan array binding signal (z-score) [13]: -1.62
glycan array binding signal (z-score) [14]: -1.48
glycan array binding signal (z-score) [15]: -1.13
glycan array binding signal (z-score) [16]: -0.936
glycan array binding signal (z-score) [17]: 0.261
glycan array binding signal (z-score) [18]: 0.712
glycan array binding signal (z-score) [19]: -1
glycan array binding signal (z-score) [20]: -1.22
glycan array binding signal (z-score) [21]: 0.289
glycan array binding signal (z-score) [22]: 0.602
glycan array binding signal (z-score) [23]: -0.9
glycan array binding signal (z-score) [24]: -0.967
glycan array binding signal (z-score) [25]: -0.483
glycan array binding signal (z-score) (Gal(b1-4)GlcNAc6P): -0.27
glycan array binding signal (z-score) (Gal(b1-6)Gal): 1.26
glycan array binding signal (z-score) (Gal3S(b1-3)GalNAc): -0.192
glycan array binding signal (z-score) (Gal3S(b1-3)GlcNAc): -0.165
glycan array binding signal (z-score) [26]: -0.613
glycan array binding signal (z-score) (Gal3S(b1-4)Glc): 0.803
glycan array binding signal (z-score) (Gal3S(b1-4)Glc6S): 0.562
glycan array binding signal (z-score) (Gal3S(b1-4)GlcNAc): 0.127
glycan array binding signal (z-score) [27]: -0.627
glycan array binding signal (z-score) [28]: -0.856
glycan array binding signal (z-score) [29]: -1.19
glycan array binding signal (z-score) (Gal3S4S(b1-4)GlcNAc): 1.08
glycan array binding signal (z-score) (Gal3S6S(b1-4)GlcNAc): -1.54
glycan array binding signal (z-score) (Gal3S6S(b1-4)GlcNAc6S): -1.07
glycan array binding signal (z-score) (Gal4S(b1-4)GlcNAc): 0.267
glycan array binding signal (z-score) (Gal4S6S(b1-4)GlcNAc): 0.962
glycan array binding signal (z-score) (Gal6P(b1-4)GlcNAc): 1.06
glycan array binding signal (z-score) (Gal6S(b1-3)GlcNAc): -0.307
glycan array binding signal (z-score) (Gal6S(b1-3)GlcNAc6S): 0.761
glycan array binding signal (z-score) (Gal6S(b1-4)Glc): -0.004
